The list shows a part of the results.
Compound: CC1Cc2ccccc2N1C(=O)C1CCCN(C1)C(=O)CCl (mixture of isomers) [TRIM25 ligand 11 (diastereomer mixture)]
Test: probe-labelled cysteine peptide fold change vs DMSO (competition) (log2 fold change); higher = less target engagement (more negative = stronger competition)
Conditions: THP-1, incubation time: 4 h
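Further: competitive chemoproteomic profiling in live THP-1 cells with an iodoacetamide desthiobiotin (IA-DTB) probe, comparing probe-labelled peptide intensities in compound-treated cells against DMSO-treated controls.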

Sequences of proteins named here, by UniProt entry; tags and fusion partners are left off. A change or cut given only in a name is not applied to a line headed by its entry.
UniProt Q969R8: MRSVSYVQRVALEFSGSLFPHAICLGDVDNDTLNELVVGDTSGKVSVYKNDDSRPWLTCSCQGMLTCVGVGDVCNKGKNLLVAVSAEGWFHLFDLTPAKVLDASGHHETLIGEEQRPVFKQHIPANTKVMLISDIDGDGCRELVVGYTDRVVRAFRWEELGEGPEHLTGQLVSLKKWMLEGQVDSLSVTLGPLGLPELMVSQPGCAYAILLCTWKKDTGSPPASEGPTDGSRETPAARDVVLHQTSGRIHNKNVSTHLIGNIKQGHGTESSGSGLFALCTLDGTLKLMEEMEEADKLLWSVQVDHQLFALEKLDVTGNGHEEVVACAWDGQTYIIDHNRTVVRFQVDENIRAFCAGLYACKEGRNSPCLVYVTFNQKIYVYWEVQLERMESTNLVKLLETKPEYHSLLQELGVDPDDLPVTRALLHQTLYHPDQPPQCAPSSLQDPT
UniProt O00410: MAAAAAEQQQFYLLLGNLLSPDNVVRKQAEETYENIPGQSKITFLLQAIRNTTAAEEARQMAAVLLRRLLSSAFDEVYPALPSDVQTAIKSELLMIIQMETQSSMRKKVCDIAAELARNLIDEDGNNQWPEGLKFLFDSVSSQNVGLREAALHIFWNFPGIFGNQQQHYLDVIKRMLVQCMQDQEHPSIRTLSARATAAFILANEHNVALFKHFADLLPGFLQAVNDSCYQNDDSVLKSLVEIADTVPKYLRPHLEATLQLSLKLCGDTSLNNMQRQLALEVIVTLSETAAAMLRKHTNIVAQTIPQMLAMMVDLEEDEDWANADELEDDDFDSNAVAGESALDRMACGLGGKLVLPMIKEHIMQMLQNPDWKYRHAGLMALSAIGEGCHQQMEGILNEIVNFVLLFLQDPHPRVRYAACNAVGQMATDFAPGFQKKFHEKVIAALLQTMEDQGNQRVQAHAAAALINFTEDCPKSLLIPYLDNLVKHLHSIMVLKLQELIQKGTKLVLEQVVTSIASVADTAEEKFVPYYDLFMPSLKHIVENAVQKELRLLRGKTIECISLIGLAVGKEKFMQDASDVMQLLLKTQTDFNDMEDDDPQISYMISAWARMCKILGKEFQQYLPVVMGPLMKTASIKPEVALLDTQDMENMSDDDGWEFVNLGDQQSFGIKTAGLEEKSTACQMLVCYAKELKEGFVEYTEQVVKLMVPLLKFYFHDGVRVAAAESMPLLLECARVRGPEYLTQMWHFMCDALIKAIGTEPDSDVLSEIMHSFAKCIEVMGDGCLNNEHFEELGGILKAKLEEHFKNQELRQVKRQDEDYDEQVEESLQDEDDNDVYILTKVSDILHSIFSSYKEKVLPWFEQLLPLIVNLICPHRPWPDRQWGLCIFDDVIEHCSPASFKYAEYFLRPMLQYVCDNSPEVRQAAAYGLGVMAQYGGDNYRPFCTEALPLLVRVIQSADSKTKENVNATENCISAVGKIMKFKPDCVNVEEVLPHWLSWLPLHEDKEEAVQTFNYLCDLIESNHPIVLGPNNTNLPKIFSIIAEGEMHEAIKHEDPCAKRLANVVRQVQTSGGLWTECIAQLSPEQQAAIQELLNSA
UniProt Q02556: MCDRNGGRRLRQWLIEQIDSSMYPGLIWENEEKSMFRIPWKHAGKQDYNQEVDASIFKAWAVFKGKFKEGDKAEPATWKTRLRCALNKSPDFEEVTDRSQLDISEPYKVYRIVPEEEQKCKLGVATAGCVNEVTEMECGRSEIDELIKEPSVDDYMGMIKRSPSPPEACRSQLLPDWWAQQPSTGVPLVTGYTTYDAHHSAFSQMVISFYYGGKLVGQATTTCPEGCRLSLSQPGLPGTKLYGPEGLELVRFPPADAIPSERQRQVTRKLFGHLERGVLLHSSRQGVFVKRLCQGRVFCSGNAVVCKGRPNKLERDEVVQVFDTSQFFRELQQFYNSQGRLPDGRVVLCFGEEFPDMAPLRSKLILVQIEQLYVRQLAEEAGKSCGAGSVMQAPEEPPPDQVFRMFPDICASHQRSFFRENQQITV
UniProt Q8TEX9: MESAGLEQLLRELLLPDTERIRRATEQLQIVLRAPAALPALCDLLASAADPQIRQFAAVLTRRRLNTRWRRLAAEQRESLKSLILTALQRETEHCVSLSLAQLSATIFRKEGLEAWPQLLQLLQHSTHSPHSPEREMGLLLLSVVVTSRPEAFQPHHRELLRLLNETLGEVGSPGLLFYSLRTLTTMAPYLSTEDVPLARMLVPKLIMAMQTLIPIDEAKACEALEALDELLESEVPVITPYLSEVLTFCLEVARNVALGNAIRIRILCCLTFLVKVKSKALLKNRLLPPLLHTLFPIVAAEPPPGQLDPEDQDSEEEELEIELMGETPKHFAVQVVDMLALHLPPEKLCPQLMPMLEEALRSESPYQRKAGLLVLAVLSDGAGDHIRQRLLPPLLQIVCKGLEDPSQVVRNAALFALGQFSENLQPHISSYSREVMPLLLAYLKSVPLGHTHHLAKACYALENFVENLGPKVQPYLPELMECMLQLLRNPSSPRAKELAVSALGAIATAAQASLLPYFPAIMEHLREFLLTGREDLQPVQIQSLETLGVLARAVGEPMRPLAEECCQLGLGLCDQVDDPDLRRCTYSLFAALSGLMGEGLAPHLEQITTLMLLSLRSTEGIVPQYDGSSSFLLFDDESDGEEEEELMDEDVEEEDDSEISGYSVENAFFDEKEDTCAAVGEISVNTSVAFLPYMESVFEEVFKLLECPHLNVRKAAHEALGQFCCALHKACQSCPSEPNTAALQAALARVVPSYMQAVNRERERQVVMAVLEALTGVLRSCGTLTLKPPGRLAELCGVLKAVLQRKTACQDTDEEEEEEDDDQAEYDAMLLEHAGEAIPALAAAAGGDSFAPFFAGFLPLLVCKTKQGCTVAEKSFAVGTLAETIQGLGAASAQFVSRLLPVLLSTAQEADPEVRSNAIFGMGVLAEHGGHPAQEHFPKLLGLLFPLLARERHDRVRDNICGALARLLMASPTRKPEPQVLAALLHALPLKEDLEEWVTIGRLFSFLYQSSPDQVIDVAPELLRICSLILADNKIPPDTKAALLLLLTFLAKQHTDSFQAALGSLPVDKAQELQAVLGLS
UniProt Q9H0H0, whole entry, looked up: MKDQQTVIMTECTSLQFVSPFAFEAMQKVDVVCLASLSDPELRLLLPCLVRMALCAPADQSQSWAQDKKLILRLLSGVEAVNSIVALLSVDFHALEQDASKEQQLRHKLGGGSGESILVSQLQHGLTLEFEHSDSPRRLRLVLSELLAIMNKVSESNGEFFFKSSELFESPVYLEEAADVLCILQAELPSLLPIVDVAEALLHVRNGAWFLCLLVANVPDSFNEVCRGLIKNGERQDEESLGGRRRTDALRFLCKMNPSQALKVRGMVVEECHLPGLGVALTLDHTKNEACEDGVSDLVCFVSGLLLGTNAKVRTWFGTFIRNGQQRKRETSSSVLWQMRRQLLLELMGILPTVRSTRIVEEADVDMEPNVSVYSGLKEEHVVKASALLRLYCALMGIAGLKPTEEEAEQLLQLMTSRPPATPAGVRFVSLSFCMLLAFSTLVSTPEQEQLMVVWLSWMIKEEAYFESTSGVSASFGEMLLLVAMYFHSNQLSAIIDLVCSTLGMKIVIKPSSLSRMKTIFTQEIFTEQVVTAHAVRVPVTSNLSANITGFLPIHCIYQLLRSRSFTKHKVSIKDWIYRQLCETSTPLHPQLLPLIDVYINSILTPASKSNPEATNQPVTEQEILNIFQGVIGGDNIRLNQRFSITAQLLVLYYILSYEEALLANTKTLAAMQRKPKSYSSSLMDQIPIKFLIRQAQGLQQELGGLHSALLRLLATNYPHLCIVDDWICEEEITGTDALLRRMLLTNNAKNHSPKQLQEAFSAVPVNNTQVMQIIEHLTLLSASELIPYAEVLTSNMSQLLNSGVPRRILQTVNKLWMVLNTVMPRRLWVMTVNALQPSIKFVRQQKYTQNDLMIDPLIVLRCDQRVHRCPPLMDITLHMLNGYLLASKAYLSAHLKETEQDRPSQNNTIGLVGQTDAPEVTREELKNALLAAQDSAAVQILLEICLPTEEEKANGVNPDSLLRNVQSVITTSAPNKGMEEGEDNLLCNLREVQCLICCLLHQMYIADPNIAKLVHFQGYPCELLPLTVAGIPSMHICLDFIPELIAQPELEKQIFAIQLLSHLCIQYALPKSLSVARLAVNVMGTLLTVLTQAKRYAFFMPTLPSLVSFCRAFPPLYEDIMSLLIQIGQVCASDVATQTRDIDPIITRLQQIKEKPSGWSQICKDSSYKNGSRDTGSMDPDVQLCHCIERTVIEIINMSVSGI
UniProt Q7Z5L9: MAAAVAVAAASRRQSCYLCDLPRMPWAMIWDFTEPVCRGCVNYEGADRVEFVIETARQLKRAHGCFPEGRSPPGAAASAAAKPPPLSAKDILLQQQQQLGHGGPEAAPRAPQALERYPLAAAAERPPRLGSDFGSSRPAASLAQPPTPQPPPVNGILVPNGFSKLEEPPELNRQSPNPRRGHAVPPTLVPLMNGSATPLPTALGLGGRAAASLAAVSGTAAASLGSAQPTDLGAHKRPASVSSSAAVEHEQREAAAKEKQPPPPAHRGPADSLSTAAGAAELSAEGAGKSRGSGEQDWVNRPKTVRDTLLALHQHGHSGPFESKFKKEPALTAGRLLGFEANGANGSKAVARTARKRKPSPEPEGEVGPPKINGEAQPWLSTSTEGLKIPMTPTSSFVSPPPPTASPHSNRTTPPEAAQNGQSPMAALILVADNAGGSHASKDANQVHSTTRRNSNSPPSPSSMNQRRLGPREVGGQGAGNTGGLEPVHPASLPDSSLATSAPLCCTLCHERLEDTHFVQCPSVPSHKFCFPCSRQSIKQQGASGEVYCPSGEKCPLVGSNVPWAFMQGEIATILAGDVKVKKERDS
UniProt P05107, whole entry, looked up: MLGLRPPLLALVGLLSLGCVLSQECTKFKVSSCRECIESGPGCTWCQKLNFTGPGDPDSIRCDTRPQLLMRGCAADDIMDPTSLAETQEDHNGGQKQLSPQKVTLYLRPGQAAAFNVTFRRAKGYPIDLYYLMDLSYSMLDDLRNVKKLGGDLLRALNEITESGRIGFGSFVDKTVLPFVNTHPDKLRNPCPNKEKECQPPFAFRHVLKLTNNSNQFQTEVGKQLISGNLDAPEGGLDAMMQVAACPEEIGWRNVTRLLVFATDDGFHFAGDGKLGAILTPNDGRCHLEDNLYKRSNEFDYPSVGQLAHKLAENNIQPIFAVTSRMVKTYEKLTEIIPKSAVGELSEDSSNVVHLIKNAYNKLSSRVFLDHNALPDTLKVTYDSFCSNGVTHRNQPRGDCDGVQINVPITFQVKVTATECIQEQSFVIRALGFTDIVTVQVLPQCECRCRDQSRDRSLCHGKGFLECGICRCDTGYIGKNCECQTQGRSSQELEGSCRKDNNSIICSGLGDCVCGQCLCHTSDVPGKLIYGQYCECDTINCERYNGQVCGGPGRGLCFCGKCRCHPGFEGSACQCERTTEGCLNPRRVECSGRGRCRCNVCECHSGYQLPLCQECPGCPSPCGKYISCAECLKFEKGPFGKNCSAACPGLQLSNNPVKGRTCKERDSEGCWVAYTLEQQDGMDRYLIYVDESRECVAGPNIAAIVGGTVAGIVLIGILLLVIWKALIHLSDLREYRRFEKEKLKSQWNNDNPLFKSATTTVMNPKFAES
UniProt Q6DN90: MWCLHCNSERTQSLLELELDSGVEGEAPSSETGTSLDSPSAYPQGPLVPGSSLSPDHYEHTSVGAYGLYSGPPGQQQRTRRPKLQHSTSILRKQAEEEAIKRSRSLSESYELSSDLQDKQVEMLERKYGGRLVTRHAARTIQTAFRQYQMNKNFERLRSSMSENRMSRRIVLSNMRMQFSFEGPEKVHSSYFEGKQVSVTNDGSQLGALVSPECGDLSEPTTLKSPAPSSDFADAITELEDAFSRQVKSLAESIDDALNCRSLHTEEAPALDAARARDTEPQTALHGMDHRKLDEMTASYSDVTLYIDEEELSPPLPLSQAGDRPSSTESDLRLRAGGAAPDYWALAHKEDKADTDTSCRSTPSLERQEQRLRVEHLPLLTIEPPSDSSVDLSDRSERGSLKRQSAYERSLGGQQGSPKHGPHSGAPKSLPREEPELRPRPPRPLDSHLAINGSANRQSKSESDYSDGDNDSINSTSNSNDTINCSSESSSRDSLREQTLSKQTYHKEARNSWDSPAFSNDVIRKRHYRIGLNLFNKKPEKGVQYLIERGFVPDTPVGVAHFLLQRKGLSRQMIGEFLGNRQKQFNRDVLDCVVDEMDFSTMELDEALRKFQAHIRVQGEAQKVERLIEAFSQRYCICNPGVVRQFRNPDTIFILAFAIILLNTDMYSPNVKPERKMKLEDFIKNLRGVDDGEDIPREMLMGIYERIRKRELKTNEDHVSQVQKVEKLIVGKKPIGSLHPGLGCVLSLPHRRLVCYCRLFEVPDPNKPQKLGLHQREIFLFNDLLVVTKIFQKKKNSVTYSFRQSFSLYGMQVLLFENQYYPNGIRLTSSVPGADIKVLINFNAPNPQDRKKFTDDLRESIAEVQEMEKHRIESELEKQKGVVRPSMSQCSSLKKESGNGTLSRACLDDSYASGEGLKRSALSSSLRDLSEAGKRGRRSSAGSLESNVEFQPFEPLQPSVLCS

Target | probe-labelled cysteine peptide fold change (10 µM) | probe-labelled cysteine peptide fold change (50 µM)
INTS3_Q68E01_498_EKFPEFCSSPSPPVEVK (UniProt Q68E01) | 0.218 | 0.0802
IPO7_O95373_484_ACWVLHYFCEVK (UniProt O95373) | 0.131 | 0.392
ITFG2_Q969R8_326_LDVTGNGHEEVVACAWDGQTYIIDHNR (UniProt Q969R8) | -0.0863 | -0.072
IPO5_O00410_229_HFADLLPGFLQAVNDSCYQNDDSVLK (UniProt O00410) | -0.169 | 0.049
IRF8_Q02556_223_LVGQATTTCPEGCR (UniProt Q02556) | 0.201 | 0.203
IPO4_Q8TEX9_269_ILCCLTFLVK (UniProt Q8TEX9) | -0.308 | 0.145
IRF8_Q02556_299+306_VFCSGNAVVCK (UniProt Q02556) | 0.124 | 0.229
INTS2_Q9H0H0_1188_DTGSMDPDVQLCHCIER (UniProt Q9H0H0) | 0.243 | 0.145
INPP5F_Q9Y2H2_725_NPEEDGKDTLQCIAEMLQITK (UniProt Q9Y2H2) | -0.143 | -0.053
IRF2BP2_Q7Z5L9_37_MPWAMIWDFTEPVCR (UniProt Q7Z5L9) | 0.189 | 0.103
IQGAP1_P46940_45_QNVAYEYLCHLEEAKR (UniProt P46940) | -0.0558 | 0.0295
IPO9_Q96P70_90_QYVETHWCAQSEK (UniProt Q96P70) | 0.0199 | -0.0142
INTS10_Q9NVR2_502_ALIQLATCHFALGEYR (UniProt Q9NVR2) | -0.072 | 0.0269
INPP5D_Q92835_1088_SFTCSSSAEGR (UniProt Q92835) | -0.137 | -0.261
ISOC2_Q96AB3_136_GLQVHVVVDACSSR (UniProt Q96AB3) | -0.181 | -0.134
INTS1_Q8N201_2099_LMSSAEECCR (UniProt Q8N201) | 0.119 | 0.0951
ITGB2_P05107_445+447_ALGFTDIVTVQVLPQCECR (UniProt P05107) | 0.0136 | 0.122
ITGB2_P05107_472_CDTGYIGK (UniProt P05107) | 0.00697 | 0.0639

Part of the list above, with tabs.
Target	probe-labelled cysteine peptide fold change (10 µM)	probe-labelled cysteine peptide fold change (50 µM)
INTS2_Q9H0H0_1188_DTGSMDPDVQLCHCIER (UniProt Q9H0H0)	0.243	0.145
IRF2BP2_Q7Z5L9_37_MPWAMIWDFTEPVCR (UniProt Q7Z5L9)	0.189	0.103

(cont.)

Target | probe-labelled cysteine peptide fold change (10 µM) | probe-labelled cysteine peptide fold change (50 µM)
ISCU_Q9H1K1_130_ELCLPPVK (UniProt Q9H1K1) | -0.0861 | 0.12
IPO4_Q8TEX9_400_LLPPLLQIVCK (UniProt Q8TEX9) | -0.0729 | 0.13
IPO5_O00410_750_GPEYLTQMWHFMCDALIK (UniProt O00410) | 0.259 | 0.22
ITGB2_P05107_549_YNGQVCGGPGR (UniProt P05107) | -0.0614 | 0.0801
ISY1_Q9ULR0_36_RPFLASECTELPK (UniProt Q9ULR0) | -0.0124 | 0.0391
ITGB2_P05107_481_NCECQTQGR (UniProt P05107) | -0.17 | -0.216
IPO4_Q8TEX9_870_QGCTVAEK (UniProt Q8TEX9) | -0.109 | -0.0581
ITGA5_P08648_156_AHGSSILACAPLYSWR (UniProt P08648) | 0.0776 | 0.0793
IREB2_P48200_467_SDFQACLNEK (UniProt P48200) | -0.0124 | -0.139
INPP5B_P32019_990_AQEFIHQFLCNPL (UniProt P32019) | -0.46 | -0.548
INTS5_Q6P9B9_183_VPHATGALNELLQLWMGCR (UniProt Q6P9B9) | -0.126 | -0.411
ITGAX_P20702_848+863_SLHLTCDSAPVGSQGTWSTSCR (UniProt P20702) | 0.132 | -0.0468
IQSEC1_Q6DN90_260_SLAESIDDALNCR (UniProt Q6DN90) | -0.0275 | -0.0141
IPO4_Q8TEX9_725+726_AAHEALGQFCCALHK (UniProt Q8TEX9) | -0.0817 | -0.0945
IPO5_O00410_1057_IFSIIAEGEMHEAIKHEDPCAK (UniProt O00410) | -0.159 | -0.272
IP6K1_Q92551_221_YPCVLDLK (UniProt Q92551) | -0.0788 | 0.0174
INTS7_Q9NVH2_374_VLTNITVSCQEK (UniProt Q9NVH2) | -0.0949 | -0.066
IPMK_Q8NFU5_373_VFYHLPTGCQEIAEVEVR (UniProt Q8NFU5) | 0.0303 | -0.136
